Results from US20190211098A1.
Results are given in words; binding and its absence hold for the method and conditions named. Some binding calls cover weakened binding; strength is not graded here.

The chains behind the UniProt entries cited, without tags or fusion partners. Where a name states a change or a piece, a line headed by the entry shows the natural chain unless it says otherwise.
UniProt P0C0L4: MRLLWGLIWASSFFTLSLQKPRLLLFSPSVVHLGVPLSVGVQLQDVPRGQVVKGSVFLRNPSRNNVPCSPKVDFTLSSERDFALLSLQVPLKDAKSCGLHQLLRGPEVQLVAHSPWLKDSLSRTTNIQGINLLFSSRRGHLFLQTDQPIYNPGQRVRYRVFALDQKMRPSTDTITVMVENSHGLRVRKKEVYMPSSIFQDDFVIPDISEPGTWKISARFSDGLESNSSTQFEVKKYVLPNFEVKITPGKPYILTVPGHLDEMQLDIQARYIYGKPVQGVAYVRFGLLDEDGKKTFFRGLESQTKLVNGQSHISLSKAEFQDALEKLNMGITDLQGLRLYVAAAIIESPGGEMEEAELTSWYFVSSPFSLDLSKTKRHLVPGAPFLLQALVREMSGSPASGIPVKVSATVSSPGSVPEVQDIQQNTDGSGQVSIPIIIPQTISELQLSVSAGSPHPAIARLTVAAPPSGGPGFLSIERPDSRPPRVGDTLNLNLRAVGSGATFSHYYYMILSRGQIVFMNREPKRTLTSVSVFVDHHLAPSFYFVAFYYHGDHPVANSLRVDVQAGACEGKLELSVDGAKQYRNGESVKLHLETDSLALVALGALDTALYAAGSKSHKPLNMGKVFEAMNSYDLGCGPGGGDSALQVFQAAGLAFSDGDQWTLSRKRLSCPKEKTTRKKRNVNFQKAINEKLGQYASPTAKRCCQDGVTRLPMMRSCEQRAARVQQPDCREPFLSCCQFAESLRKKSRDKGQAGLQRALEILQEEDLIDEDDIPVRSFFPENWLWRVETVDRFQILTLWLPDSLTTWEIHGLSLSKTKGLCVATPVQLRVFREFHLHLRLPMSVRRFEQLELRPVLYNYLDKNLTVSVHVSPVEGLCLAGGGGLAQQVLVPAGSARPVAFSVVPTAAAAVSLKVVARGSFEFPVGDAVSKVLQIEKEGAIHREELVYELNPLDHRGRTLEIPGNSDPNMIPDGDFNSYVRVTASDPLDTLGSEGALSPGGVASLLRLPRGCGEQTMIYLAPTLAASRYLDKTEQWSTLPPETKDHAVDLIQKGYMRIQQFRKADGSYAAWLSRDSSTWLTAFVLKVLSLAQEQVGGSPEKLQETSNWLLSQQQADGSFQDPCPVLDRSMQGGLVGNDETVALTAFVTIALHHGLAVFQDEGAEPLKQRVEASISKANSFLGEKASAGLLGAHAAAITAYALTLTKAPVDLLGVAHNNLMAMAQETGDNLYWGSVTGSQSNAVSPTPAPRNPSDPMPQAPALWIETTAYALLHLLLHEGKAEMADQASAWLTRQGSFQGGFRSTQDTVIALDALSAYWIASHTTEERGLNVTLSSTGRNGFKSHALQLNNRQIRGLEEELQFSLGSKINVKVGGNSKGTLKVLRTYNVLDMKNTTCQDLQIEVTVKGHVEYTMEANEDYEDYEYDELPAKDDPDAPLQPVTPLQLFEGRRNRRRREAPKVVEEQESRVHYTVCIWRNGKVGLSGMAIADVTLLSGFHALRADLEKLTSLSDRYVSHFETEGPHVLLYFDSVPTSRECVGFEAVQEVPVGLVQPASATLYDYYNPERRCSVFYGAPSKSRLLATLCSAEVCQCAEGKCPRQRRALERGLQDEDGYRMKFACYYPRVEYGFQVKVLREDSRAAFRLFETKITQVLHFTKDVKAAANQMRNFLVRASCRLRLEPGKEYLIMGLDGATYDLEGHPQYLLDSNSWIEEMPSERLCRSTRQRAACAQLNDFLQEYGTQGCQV
UniProt Q9UKJ1: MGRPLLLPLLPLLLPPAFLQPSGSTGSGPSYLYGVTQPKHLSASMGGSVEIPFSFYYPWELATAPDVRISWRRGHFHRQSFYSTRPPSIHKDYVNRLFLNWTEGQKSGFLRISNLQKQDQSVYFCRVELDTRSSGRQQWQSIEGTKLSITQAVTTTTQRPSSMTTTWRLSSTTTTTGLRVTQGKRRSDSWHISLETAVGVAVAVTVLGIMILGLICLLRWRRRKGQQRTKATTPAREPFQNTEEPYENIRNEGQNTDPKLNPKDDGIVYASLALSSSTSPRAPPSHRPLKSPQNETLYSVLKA

Legend:
[1] = target: Full length C4A fused with C-terminal gD tag and GPI anchor, expressed on transfected 293T cells (human; Human alphaherpesvirus 1) (UniProt P0C0L4); assay: flow cytometry: soluble mIgG2a-tagged PILRA variant on C4A-transfected 293T cells, FITC anti-mIgG2a; MFI as % of G78 (= 100 %)
[2] = target: Full length C4A fused with C-terminal gD tag and GPI anchor, expressed on transfected 293T cells (human; Human alphaherpesvirus 1) (UniProt P0C0L4); assay: flow cytometry (FACS), soluble mIgG2a-tagged PILRA on C4A-transfected 293T cells
[3] = target: Full length C4A fused with C-terminal gD tag and GPI anchor, expressed on transfected 293T cells (human; Human alphaherpesvirus 1) (UniProt P0C0L4); assay: flow cytometry (FACS), soluble mIgG2a-tagged PILRA on ligand-transfected 293T cells
[4] = target: Full length C4A fused with C-terminal gD tag and GPI anchor, expressed on transfected 293T cells (human; Human alphaherpesvirus 1) (UniProt P0C0L4); assay: flow cytometry: soluble mIgG2a-tagged G78 PILRA on 293T cells transfected with full length C4A-gD-GPI, FITC anti-mIgG2a; MFI as fold of vector control

| binding [1] | binding [2] | binding [3] | binding [4] | Substance |
| --- | --- | --- | --- | --- |
| binds | binds | – | – | PILRA R78 variant extracellular domain fused to murine IgG2a Fc (from UniProt Q9UKJ1 20-196) (Fc fusion) |
| binds | – | – | – | PILRA G80 variant extracellular domain fused to murine IgG2a Fc (from UniProt Q9UKJ1 20-196) (Fc fusion) |
| – | – | binds | binds | PILRA G78 variant extracellular domain fused to murine IgG2a Fc (from UniProt Q9UKJ1 20-196) (Fc fusion) |
